Test results taken from patent publication US8227421B2 (University of Miami, priority 2009, dated 2012).
For part of these data: One purity is given for all peptides; the source may state it once.

Experiments:
[1] = general procedure: Boc solid-phase peptide synthesis; Boc-Agm-SPA-MBHA; DIC; preformed HOBt esters for Boc-Asn-OH and Boc-Gln-OH; conditions: whole synthesis, scale 0.50 mmol
[2] = general procedure: Boc solid-phase peptide synthesis; MBHA (preferred for amidated C-terminus, Boc strategy); Merrifield or HMBA-MBHA for C-terminal ethylamide; DIC; preformed HOBt esters for Boc-Asn-OH and Boc-Gln-OH; conditions: whole synthesis, 220 and 280 nm
[3] = general procedure: Boc solid-phase peptide synthesis; MBHA; DIC; preformed HOBt esters for Boc-Asn-OH and Boc-Gln-OH; conditions: whole synthesis, scale 0.50 mmol
[4] = general procedure: Boc solid-phase peptide synthesis; Boc-Ada-Merrifield; DIC; preformed HOBt esters for Boc-Asn-OH and Boc-Gln-OH; conditions: whole synthesis, scale 0.50 mmol

Row | Substance | crude mass [1] [mg] | isolated mass [1] [mg] | final HPLC purity [2] [%] | crude mass [3] [mg] | isolated mass [3] [mg] | crude mass [4] [mg] | isolated mass [4] [mg]
1 | (PhF5Ac-Ada)^0-Tyr^1-D-Arg^2-Asp^3-Ala^4-Ile^5-Cpa^6-Thr^7-(Me-Ala)^8-Har^9-Fpa5^10-His^11-Orn^12-Val^13-Leu^14-His^15-Gln^16-Glu^17-Ser^18-Ala^19-His^20-Orn^21-Leu^22-Leu^23-Gln^24-Asp^25-Ile^26-Nle^27-D-Arg^28-Har^29-Agm^30 | 127 | 11.3 | >95 | – | – | – | –
2 | Ac-Ada^0-Tyr^1-D-Arg^2-Asp^3-Ala^4-Ile^5-Cpa^6-Thr^7-Ala^8-Har^9-Fpa5^10-His^11-Orn^12-Val^13-Leu^14-Abu^15-Gln^16-Leu^17-Ser^18-Ala^19-His^20-Orn^21-Leu^22-Leu^23-Gln^24-Asp^25-Ile^26-Nle^27-D-Arg^28-Har^29-NH2 | – | – | >95 | 167 | 19.8 | – | –
3 | PhAc^0-Tyr^1-D-Arg^2-Asp^3-Ala^4-Ile^5-Cpa^6-Thr^7-Ala^8-Har^9-Fpa5^10-His^11-Orn^12-Val^13-Leu^14-Abu^15-Gln^16-Leu^17-Ser^18-Ala^19-His^20-Orn^21-Leu^22-Leu^23-Gln^24-Asp^25-Ile^26-Nle^27-D-Arg^28-Har^29-Ada^30-NH2 | – | – | >95 | 132 | 10.2 | – | –
4 | [(PhAc-Ada)^0-Tyr^1, D-Arg^2, Cpa^6, (Me-Ala)^8, Har^9, Fpa5^10, His^11, Orn^12, His^15, Glu^17, His^20, Orn^21, Nle^27, D-Arg^28, Har^29, Ada^30]hGH-RH(1-30)OH | – | – | >95 | – | – | 107 | 11.3
